# Results published in the supplement of paper PMC8728848.
# The list shows a part of the results.
# B1: RfpC (Mycobacterium tuberculosum), O07747 (protein)
# chain: MHHHHHHSSGRENLYFQGHMASKSAMAAGLVTASMSLSTAVAHAGPSPNWDAVAQCESGGNWAANTGNGKYGGLQFKPATWAAFGGVGNPAAASREQQIAVANRVLAEQGLDAWPTCGAASGLPIALWSKPAQGIKGS
# Experiments:
# Test in all cases: glycan array binding signal (z-score within array); higher = stronger binding
# Settings in all cases: glycan notation: IUPAC condensed, linker removed
# [1] = molecular target: Fuc(a1-3)[GalNAc(b1-4)]GlcNAc
# How it was run: (§1)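 The binding signal is a Z-score computed within each array and averaged over linkers. Arrays of the same protein sequence at different concentrations or buffers were also averaged together. Data originate from 3228 arrays in the Consortium for Functional Glycomics database, kept only where the protein sequence was available.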
# [2] = molecular target: Fuc(a1-4)GlcNAc
# How it was run: as §1
# [3] = molecular target: Fuc(b1-3)GlcNAc
# How it was run: as §1
# [4] = molecular target: Gal(a1-2)Gal
# How it was run: as §1
# [5] = molecular target: Gal(a1-3)Gal
# How it was run: as §1
# [6] = molecular target: Gal(a1-3)Gal(b1-3)GlcNAc
# How it was run: as §1
# [7] = molecular target: Gal(a1-3)Gal(b1-4)Glc
# How it was run: as §1
# [8] = molecular target: Gal(a1-3)Gal(b1-4)GlcNAc
# How it was run: as §1
# [9] = molecular target: Gal(a1-3)Gal(b1-4)[Fuc(a1-3)]GlcNAc
# How it was run: as §1
# [10] = molecular target: Gal(a1-3)GalNAc
# How it was run: as §1
# [11] = molecular target: Gal(a1-3)[Gal(a1-4)]Gal(b1-4)GlcNAc
# How it was run: as §1
# [12] = molecular target: Gal(a1-4)Gal(b1-4)Glc
# How it was run: as §1
# [13] = molecular target: Gal(a1-4)Gal(b1-4)GlcNAc
# How it was run: as §1
# [14] = molecular target: Gal(a1-4)GlcNAc
# How it was run: as §1
# [15] = molecular target: Gal(a1-6)Glc
# How it was run: as §1
# [16] = molecular target: Gal(b1-2)Gal
# How it was run: as §1
# [17] = molecular target: Gal(b1-3)Gal
# How it was run: as §1
# [18] = molecular target: Gal(b1-3)Gal(b1-4)GlcNAc
# How it was run: as §1
# [19] = molecular target: Gal(b1-3)GalNAc
# How it was run: as §1
# [20] = molecular target: Gal(b1-3)GalNAc(b1-3)Gal(a1-4)Gal(b1-4)Glc
# How it was run: as §1
# [21] = molecular target: Gal(b1-3)GalNAc(b1-4)Gal(b1-4)Glc
# How it was run: as §1
# [22] = molecular target: Gal(b1-3)GalNAc(b1-4)[Neu5Ac(a2-3)]Gal(b1-4)Glc
# How it was run: as §1
# [23] = molecular target: Gal(b1-3)GlcNAc
# How it was run: as §1
# [24] = molecular target: Gal(b1-3)GlcNAc(b1-3)Gal(b1-3)GlcNAc
# How it was run: as §1
# [25] = molecular target: Gal(b1-3)GlcNAc(b1-3)Gal(b1-4)Glc
# How it was run: as §1
# [26] = molecular target: Gal(b1-3)GlcNAc(b1-3)Gal(b1-4)GlcNAc
# How it was run: as §1
# [27] = molecular target: Gal(b1-3)[Fuc(a1-4)]GlcNAc
# How it was run: as §1
# [28] = molecular target: Gal(b1-3)[Fuc(a1-4)]GlcNAc(b1-3)Gal(b1-3)[Fuc(a1-4)]GlcNAc
# How it was run: as §1
# [29] = molecular target: Gal(b1-3)[Fuc(a1-4)]GlcNAc(b1-3)Gal(b1-4)GlcNAc
# How it was run: as §1
# [30] = molecular target: Gal(b1-3)[Fuc(a1-4)]GlcNAc(b1-3)Gal(b1-4)[Fuc(a1-3)]GlcNAc
# How it was run: as §1
# [31] = molecular target: Gal(b1-3)[GlcNAc(b1-6)]GalNAc
# How it was run: as §1
# [32] = molecular target: Gal(b1-3)[Neu5Ac(a2-6)]GalNAc
# How it was run: as §1
# [33] = molecular target: Gal(b1-3)[Neu5Ac(a2-6)]GlcNAc(b1-6)Gal(b1-4)Glc
# How it was run: as §1
# [34] = molecular target: Gal(b1-3)[Neu5Ac(b2-6)]GalNAc
# How it was run: as §1
# [35] = molecular target: Gal(b1-4)GalNAc(a1-3)[Fuc(a1-2)]Gal(b1-4)GlcNAc
# How it was run: as §1
# [36] = molecular target: Gal(b1-4)GalNAc(b1-3)[Fuc(a1-2)]Gal(b1-4)GlcNAc
# How it was run: as §1
# [37] = molecular target: Gal(b1-4)Glc
# How it was run: as §1
# [38] = molecular target: Gal(b1-4)Glc6S
# How it was run: as §1
# [39] = molecular target: Gal(b1-4)GlcNAc
# How it was run: as §1
# [40] = molecular target: Gal(b1-4)GlcNAc(a1-6)Gal(b1-4)GlcNAc
# How it was run: as §1
# [41] = molecular target: Gal(b1-4)GlcNAc(b1-2)Man(a1-3)[Gal(b1-4)GlcNAc(b1-2)Man(a1-6)]Man(b1-4)GlcNAc(b1-4)GlcNAc
# How it was run: as §1
# [42] = molecular target: Gal(b1-4)GlcNAc(b1-3)Gal(b1-3)GlcNAc
# How it was run: as §1
# [43] = molecular target: Gal(b1-4)GlcNAc(b1-3)Gal(b1-4)Glc
# How it was run: as §1
# [44] = molecular target: Gal(b1-4)GlcNAc(b1-3)Gal(b1-4)GlcNAc
# How it was run: as §1
# [45] = molecular target: Gal(b1-4)GlcNAc(b1-3)Gal(b1-4)GlcNAc(b1-3)Gal(b1-4)GlcNAc
# How it was run: as §1
binder,measurement,setting,value
B1,glycan array binding signal (z-score),[1],0.149
same,glycan array binding signal (z-score),[2],-1.09
same,glycan array binding signal (z-score),[3],-0.51
same,glycan array binding signal (z-score),[4],0.019
same,glycan array binding signal (z-score),[5],-1.24
same,glycan array binding signal (z-score),[6],-1.2
same,glycan array binding signal (z-score),[7],0.44
same,glycan array binding signal (z-score),[8],-0.872
same,glycan array binding signal (z-score),[9],-0.821
same,glycan array binding signal (z-score),[10],-0.007
same,glycan array binding signal (z-score),[11],2.24
same,glycan array binding signal (z-score),[12],-0.838
same,glycan array binding signal (z-score),[13],0.65
same,glycan array binding signal (z-score),[14],0.343
same,glycan array binding signal (z-score),[15],-0.418
same,glycan array binding signal (z-score),[16],0.853
same,glycan array binding signal (z-score),[17],-0.47
same,glycan array binding signal (z-score),[18],-0.276
same,glycan array binding signal (z-score),[19],-0.749
same,glycan array binding signal (z-score),[20],2.48
same,glycan array binding signal (z-score),[21],-0.364
same,glycan array binding signal (z-score),[22],-0.818
same,glycan array binding signal (z-score),[23],-0.353
same,glycan array binding signal (z-score),[24],-1.04
same,glycan array binding signal (z-score),[25],-0.841
same,glycan array binding signal (z-score),[26],-0.74
same,glycan array binding signal (z-score),[27],-0.507
same,glycan array binding signal (z-score),[28],-0.622
same,glycan array binding signal (z-score),[29],-1.24
same,glycan array binding signal (z-score),[30],-0.435
same,glycan array binding signal (z-score),[31],-0.747
same,glycan array binding signal (z-score),[32],-0.18
same,glycan array binding signal (z-score),[33],0.823
same,glycan array binding signal (z-score),[34],0.016
same,glycan array binding signal (z-score),[35],1.08
same,glycan array binding signal (z-score),[36],3.48
same,glycan array binding signal (z-score),[37],-0.11
same,glycan array binding signal (z-score),[38],4.01
same,glycan array binding signal (z-score),[39],0.012
same,glycan array binding signal (z-score),[40],-0.005
same,glycan array binding signal (z-score),[41],0.464
same,glycan array binding signal (z-score),[42],0.174
same,glycan array binding signal (z-score),[43],0.434
same,glycan array binding signal (z-score),[44],-0.68
same,glycan array binding signal (z-score),[45],2.9
